Data from paper PMC10397244, “BIK1 protein homeostasis is maintained by the interplay of different ubiquitin ligases in immune signaling” (Nature Communications, 2023).
These are yes or no findings as the source states them, for the method shown. In cells and extracts the contact can be indirect. Binding calls can cover weak binding; strength is not graded here. Tags and fused reporters may be left off the sequences shown.

Chains of the proteins cited; added tags and fusions are not shown. Lines headed by an entry give the natural chain unless they say otherwise; changes in a name come on top.
UniProt F4JJ02: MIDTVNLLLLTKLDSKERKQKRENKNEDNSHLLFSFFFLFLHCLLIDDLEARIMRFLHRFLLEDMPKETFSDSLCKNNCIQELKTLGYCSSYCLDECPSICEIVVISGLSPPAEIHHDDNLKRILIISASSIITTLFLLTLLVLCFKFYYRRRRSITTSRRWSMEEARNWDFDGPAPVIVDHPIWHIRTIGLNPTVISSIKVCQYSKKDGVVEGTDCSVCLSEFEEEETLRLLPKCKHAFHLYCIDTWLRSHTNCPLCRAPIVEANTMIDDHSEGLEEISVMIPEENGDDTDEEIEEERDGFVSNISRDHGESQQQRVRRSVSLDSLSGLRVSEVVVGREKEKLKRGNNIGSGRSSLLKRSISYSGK

Target: T1, BIK1-CLuc (Arabidopsis thaliana) (UniProt O48814)
T1 sequence: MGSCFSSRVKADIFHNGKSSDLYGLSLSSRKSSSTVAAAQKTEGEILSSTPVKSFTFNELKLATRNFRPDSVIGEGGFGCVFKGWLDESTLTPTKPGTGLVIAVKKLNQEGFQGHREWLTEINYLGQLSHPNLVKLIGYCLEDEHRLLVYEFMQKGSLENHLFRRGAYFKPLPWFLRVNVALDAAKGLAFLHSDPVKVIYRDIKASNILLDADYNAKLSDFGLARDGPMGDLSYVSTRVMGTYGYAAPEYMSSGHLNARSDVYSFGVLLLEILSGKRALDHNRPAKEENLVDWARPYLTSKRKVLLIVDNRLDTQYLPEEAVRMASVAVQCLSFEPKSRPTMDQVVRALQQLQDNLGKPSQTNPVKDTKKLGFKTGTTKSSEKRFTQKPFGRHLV
Experiment: split reporter; split-luciferase complementation; CLuc and NLuc fusions co-infiltrated into N. benthamiana leaves, luminescence two days later; with or without 5 uM flg22 for 30 min

binding: binds
Substance: ATL83-NLuc (from UniProt F4JJ02)
